These results are taken from patent US20230227832, “ANTICANCER APTAMERS AND USES THEREOF” (CONSIGLIO NAZIONALE DELLE RICERCHE, published 2023).

Protein sequences, listed by entry. Tags and fused reporters are not part of them. Residues count along the entry.
UniProt O60565, 25-184: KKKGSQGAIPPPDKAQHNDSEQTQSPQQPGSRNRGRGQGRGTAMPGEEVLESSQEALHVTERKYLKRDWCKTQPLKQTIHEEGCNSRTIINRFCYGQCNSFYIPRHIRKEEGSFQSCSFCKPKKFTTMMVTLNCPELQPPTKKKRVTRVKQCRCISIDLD

The target in data set [1] is Gremlin-1 (GREM1), overexpressed in U87MG (UniProt O60565). The data set can be described thus: pull-down. Conditions: 2'-F pyrimidines (2'-F-C, 2'-F-U; per library chemistry); whole lysate of U87MG transfected with GREM1 vector; streptavidin bead pulldown, GREM1 immunoblot; protein in a lysate after overexpression; label: biotin.
Data set [2] concerns the target Gremlin-1 (GREM1), overexpressed from transfected cDNA in U87MG cells (UniProt O60565). The data set is described as follows: binding assay. Particulars: 2'-F pyrimidines (2'-F-C, 2'-F-U; per library chemistry); binding to U87MG cells increases upon GREM1 overexpression; exosomes from GREM1-transfected cells also bound more (FIG. 7F); protein in cells; label: biotin.

Where cells or extracts were used, other partners may take part.

Take “UGUGGCAGUUAAGAAUAGAUCUUCGCUGCGAUU [ex-50.T]”: the binding result in data set [1] and in data set [2] was “binds” each time.
